# The supplement of paper PMC10849652
# Chains of the proteins cited; added tags and fusions are not shown. Lines headed by an entry give the natural chain unless they say otherwise; changes in a name come on top.
# UniProt Q86WQ0: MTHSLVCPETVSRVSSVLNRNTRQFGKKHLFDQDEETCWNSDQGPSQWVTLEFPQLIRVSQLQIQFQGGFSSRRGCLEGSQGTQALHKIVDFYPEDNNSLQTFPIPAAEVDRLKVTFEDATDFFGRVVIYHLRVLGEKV
# UniProt P0C024: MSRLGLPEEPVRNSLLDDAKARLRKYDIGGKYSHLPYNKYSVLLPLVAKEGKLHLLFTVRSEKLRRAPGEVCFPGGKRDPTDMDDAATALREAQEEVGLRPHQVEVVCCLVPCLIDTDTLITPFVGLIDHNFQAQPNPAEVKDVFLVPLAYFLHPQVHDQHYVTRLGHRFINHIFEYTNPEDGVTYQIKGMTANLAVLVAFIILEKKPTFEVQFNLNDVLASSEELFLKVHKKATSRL
# UniProt Q9H0G5: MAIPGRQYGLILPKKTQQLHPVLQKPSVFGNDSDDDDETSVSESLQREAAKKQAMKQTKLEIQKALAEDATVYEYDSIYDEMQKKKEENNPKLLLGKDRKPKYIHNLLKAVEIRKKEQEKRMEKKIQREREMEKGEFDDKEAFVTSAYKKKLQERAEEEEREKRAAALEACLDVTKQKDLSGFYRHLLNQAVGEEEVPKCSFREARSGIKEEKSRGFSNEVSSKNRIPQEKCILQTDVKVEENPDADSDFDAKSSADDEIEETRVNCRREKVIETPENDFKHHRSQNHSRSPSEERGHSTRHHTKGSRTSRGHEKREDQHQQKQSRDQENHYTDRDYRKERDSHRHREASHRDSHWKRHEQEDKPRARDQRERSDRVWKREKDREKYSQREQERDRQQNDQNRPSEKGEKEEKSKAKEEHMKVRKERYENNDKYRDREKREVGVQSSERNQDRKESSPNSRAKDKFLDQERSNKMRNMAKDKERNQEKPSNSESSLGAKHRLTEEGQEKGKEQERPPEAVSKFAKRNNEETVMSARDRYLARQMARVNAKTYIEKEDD
# UniProt Q5C9Z4: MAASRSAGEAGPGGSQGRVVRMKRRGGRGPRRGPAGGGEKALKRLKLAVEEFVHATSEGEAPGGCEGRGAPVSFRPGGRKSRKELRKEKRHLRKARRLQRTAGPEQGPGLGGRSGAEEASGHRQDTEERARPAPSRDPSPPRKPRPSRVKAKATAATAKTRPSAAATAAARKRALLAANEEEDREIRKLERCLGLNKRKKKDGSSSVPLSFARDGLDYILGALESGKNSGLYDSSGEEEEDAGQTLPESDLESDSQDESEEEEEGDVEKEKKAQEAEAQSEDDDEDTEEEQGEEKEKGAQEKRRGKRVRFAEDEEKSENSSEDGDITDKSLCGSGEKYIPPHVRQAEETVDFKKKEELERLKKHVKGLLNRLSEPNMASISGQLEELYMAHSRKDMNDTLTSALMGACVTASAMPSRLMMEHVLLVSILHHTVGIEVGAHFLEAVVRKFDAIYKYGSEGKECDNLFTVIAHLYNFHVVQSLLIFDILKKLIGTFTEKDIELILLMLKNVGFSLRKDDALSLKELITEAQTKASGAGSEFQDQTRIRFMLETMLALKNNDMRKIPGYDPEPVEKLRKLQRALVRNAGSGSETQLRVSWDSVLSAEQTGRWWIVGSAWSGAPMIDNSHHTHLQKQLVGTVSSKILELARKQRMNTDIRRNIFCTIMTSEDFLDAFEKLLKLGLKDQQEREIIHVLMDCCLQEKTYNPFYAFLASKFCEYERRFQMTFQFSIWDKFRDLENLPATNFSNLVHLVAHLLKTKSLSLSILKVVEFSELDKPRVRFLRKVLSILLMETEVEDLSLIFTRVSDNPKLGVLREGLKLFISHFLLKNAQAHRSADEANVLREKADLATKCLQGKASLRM
# UniProt Q96L73: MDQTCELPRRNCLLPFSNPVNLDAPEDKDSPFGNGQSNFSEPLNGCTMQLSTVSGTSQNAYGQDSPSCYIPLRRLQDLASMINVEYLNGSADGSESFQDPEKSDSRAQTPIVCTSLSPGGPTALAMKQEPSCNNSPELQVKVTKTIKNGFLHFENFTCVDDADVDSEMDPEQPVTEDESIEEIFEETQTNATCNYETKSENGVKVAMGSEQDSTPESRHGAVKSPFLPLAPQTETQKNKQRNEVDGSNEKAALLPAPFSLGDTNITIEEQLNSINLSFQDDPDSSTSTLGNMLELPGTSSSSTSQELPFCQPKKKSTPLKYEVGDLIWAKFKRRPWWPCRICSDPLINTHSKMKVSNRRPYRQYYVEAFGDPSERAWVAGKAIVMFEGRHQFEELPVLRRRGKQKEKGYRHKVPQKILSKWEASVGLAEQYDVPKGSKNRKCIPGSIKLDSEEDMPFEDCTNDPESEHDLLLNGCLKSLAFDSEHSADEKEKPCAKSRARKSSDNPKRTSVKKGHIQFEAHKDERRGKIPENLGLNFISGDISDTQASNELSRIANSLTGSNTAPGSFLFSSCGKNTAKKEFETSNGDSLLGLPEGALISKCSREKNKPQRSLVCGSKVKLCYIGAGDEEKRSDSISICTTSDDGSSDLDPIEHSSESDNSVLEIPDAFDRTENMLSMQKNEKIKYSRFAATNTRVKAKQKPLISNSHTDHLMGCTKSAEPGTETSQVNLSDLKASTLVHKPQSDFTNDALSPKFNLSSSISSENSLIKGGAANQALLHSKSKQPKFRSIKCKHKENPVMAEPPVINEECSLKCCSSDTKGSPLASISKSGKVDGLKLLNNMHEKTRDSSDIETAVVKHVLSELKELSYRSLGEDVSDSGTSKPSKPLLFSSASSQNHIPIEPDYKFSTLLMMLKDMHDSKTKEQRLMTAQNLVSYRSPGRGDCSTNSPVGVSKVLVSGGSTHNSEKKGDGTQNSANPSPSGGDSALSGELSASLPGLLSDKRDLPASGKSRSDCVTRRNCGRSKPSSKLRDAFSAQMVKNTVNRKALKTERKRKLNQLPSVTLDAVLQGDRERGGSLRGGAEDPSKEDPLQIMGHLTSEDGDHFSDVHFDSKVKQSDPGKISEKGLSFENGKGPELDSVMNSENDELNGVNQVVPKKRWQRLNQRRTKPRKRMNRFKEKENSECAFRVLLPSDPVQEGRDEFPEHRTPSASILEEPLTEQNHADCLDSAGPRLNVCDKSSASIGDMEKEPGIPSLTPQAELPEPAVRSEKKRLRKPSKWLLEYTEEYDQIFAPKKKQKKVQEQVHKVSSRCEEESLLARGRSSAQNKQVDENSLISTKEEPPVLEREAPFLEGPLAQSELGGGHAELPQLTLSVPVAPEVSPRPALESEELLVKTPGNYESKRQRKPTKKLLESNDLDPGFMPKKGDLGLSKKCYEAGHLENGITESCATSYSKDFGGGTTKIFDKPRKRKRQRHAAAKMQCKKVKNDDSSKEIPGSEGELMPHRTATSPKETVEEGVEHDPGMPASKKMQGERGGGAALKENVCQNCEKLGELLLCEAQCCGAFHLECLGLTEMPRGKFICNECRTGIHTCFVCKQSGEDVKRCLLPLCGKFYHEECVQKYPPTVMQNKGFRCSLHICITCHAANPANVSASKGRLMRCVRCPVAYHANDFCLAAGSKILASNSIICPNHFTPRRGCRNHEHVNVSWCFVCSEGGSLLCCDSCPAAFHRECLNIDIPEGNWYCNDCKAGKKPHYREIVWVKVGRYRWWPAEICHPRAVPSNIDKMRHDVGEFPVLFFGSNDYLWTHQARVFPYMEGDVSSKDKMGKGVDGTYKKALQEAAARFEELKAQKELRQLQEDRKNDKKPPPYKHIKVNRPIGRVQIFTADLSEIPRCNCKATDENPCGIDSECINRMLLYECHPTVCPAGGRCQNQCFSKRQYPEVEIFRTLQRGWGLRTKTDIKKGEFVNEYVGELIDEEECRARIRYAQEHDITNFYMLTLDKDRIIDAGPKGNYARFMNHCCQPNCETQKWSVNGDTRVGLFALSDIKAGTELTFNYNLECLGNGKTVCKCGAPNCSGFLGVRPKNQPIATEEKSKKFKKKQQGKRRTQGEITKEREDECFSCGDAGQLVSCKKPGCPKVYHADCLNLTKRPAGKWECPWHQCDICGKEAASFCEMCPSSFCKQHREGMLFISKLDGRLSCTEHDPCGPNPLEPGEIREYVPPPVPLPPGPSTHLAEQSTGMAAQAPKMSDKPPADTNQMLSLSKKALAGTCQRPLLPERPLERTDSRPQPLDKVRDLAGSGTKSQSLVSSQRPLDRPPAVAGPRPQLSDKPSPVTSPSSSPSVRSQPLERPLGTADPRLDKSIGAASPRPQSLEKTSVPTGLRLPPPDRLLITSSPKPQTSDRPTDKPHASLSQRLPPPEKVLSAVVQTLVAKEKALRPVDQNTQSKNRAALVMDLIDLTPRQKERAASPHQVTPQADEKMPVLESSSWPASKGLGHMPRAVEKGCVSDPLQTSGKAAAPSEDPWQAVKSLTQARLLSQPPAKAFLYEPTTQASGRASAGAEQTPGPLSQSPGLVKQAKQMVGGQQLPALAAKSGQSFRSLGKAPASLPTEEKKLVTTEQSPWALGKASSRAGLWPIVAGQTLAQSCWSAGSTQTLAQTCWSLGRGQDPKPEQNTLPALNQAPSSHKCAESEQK
# UniProt Q8WV74: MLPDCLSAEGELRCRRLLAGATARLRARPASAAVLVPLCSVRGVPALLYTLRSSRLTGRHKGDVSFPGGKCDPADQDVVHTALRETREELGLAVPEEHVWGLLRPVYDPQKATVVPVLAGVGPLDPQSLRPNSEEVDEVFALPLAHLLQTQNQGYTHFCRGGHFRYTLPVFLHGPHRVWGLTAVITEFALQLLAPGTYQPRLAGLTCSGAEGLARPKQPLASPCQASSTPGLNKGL
# UniProt Q96D46: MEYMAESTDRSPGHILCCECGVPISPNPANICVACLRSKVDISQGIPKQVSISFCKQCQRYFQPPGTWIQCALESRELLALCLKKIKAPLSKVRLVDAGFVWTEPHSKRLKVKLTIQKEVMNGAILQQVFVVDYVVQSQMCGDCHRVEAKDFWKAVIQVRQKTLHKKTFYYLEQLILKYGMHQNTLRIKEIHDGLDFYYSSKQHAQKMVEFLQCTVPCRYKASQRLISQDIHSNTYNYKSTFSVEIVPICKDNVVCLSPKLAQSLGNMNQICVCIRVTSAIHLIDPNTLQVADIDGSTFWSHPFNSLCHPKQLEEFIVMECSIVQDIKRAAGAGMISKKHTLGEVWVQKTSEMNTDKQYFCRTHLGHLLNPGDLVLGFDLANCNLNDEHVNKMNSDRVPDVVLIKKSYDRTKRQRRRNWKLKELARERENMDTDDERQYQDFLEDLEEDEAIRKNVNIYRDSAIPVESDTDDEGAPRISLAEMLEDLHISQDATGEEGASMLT
# UniProt Q9NQ35: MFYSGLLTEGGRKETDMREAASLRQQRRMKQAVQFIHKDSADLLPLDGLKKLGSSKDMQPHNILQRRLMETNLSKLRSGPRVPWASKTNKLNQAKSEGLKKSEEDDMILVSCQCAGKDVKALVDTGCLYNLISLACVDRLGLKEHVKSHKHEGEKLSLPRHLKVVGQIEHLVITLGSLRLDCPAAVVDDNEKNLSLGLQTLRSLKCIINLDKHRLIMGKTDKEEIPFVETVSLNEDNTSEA
# UniProt Q8IVI9: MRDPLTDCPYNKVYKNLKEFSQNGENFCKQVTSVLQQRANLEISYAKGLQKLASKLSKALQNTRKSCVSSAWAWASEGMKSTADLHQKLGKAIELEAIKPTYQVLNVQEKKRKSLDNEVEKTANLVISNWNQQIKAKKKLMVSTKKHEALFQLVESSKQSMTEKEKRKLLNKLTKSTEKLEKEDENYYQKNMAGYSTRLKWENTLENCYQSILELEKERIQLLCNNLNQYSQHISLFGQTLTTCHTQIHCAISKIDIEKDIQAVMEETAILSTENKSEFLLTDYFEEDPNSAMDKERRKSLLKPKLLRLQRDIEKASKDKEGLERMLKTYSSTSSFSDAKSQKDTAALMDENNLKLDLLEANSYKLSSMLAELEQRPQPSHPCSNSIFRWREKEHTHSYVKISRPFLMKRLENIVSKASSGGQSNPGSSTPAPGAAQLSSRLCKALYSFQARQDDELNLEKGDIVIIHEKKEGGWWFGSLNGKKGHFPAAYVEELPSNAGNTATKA
# The other results are listed elsewhere or left out.
# Assays:
# Assay in all cases: log2 fold change, soluble protein after heating vs DMSO (PISA); higher = thermal stabilisation; K562 lysate, 10 uM; active = over 0.2 and 3.5 SD of the protein, either way, in both replicates (recomputed)
# vemurafenib = compound: CCCS(=O)(=O)Nc1ccc(F)c(C(=O)c2c[nH]c3ncc(-c4ccc(Cl)cc4)cc23)c1F [vemurafenib]
# Outline: (§1)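 Soluble protein was defined as the supernatant remaining after 21,000xg for 90 min, following pooling of heated aliquots and adjustment to 0.5% NP-40 at 4°C. Before that, crude K562 extract at 1 mg/mL protein in PBS pH 7.4 with 1 mM MgCl2 was treated with 10 μM compound for 30 min and heated for 3 min across 48°C-58°C. Quantification used TMTpro 16plex LC-MS/MS with channel sums equalised, and values are log-two fold changes in thermal stability relative to solvent controls from duplicates.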
# [1] = compound: CCCS(=O)(=O)Nc1ccc(F)c(C(=O)c2c[nH]c3ncc(Cl)cc23)c1F
# Outline: as §1
# barasertib = compound: CCN(CCCOc1ccc2c(Nc3cc(CC(=O)Nc4cccc(F)c4)[nH]n3)ncnc2c1)CCOP(=O)(O)O [barasertib]
# Outline: as §1
# [2] = compound: CC[C@@H]1C(=O)N(C)c2cnc(Nc3ccc(C(=O)NC4CCN(C)CC4)cc3OC)nc2N1C1CCCC1
# Outline: as §1
# volasertib = compound: CC[C@@H]1C(=O)N(C)c2cnc(Nc3ccc(C(=O)N[C@H]4CC[C@H](N5CCN(CC6CC6)CC5)CC4)cc3OC)nc2N1C(C)C [volasertib]
# Outline: as §1
# [3] = compound: CCn1c(C(=O)N(C2CC2)C2CC2)cc2c3c(ncn3C)c(Nc3cc(C)n(C)n3)nc21
# Outline: as §1
# [4] = compound: CCn1cc(-c2ccnc3[nH]c(-c4cccc(CN(C)C)c4)cc23)c(-c2ccc(NC(=O)N(C)C)cc2)n1
# Outline: as §1
# [5] = compound: CN1CCC(CNc2ccc3ncc(-c4cccc(OC(F)(F)F)c4)n3n2)CC1
# Outline: as §1
# saracatinib = compound: CN1CCN(CCOc2cc(OC3CCOCC3)c3c(Nc4c(Cl)ccc5c4OCO5)ncnc3c2)CC1 [saracatinib]
# Outline: as §1
# sotrastaurin = compound: CN1CCN(c2nc(C3=C(c4c[nH]c5ccccc45)C(=O)NC3=O)c3ccccc3n2)CC1 [sotrastaurin]
# Outline: as §1
# alvocidib = compound: CN1CC[C@H](c2c(O)cc(O)c3c(=O)cc(-c4ccccc4Cl)oc23)[C@H](O)C1 [alvocidib]
# Outline: as §1
# Tubastatin A = compound: CN1CCc2c(c3ccccc3n2Cc2ccc(C(=O)NO)cc2)C1 [Tubastatin A]
# Outline: as §1
# [6] = compound: CNC(=O)C1=CC=CC=C1NC2=NC(=NC=C2Cl)NC3=C(C=C(C=C3)N4CCOCC4)OC
# Outline: as §1
# defactinib = compound: CNC(=O)c1ccc(Nc2ncc(C(F)(F)F)c(NCc3nccnc3N(C)S(C)(=O)=O)n2)cc1 [defactinib]
# Outline: as §1
# [7] = compound: CNc1nc(-c2ccc3c(N)n[nH]c3c2)cc(N2C[C@@H](C(=O)NC3CCCCC3)CC[C@H]2C)n1
# Outline: as §1
# encorafenib = compound: COC(=O)N[C@@H](C)CNc1nccc(-c2cn(C(C)C)nc2-c2cc(Cl)cc(NS(C)(=O)=O)c2F)n1 [encorafenib]
# Outline: as §1
# [8] = compound: COC(=O)[C@H](CCSC)NC(=O)C1=C(C=C(C=C1)NC[C@H](CS)N)C2=CC=CC=C2
# Outline: as §1
# alisertib = compound: COc1cc(Nc2ncc3c(n2)-c2ccc(Cl)cc2C(c2c(F)cccc2OC)=NC3)ccc1C(=O)O [alisertib]
# Outline: as §1
# [9] = compound: COc1cc2nc(-c3cc(F)ccc3O)nc(N[C@@H]3CNC[C@H]3C(C)(C)O)c2cc1OC
# Outline: as §1
# gefitinib = compound: COc1cc2ncnc(Nc3ccc(F)c(Cl)c3)c2cc1OCCCN1CCOCC1 [gefitinib]
# Outline: as §1
Target,log2 fold change (vemurafenib),log2 fold change [1],log2 fold change (barasertib),log2 fold change [2],log2 fold change (volasertib),log2 fold change [3],log2 fold change [4],log2 fold change [5],log2 fold change (saracatinib),log2 fold change (sotrastaurin),log2 fold change (alvocidib),log2 fold change (Tubastatin A),log2 fold change [6],log2 fold change (defactinib),log2 fold change [7],log2 fold change (encorafenib),log2 fold change [8],log2 fold change (alisertib),log2 fold change [9],log2 fold change (gefitinib)
NR2C2AP isoform 2 (UniProt Q86WQ0),inactive: -0.026,inactive: 0.029,inactive: 0.044,inactive: -0.09,inactive: 0.022,inactive: 0.003,inactive: -0.107,inactive: 0.024,inactive: -0.066,inactive: -0.113,inactive: -0.063,inactive: 0.023,inactive: 0.005,inactive: 0.003,inactive: 0.022,inactive: 0.029,inactive: -0.031,inactive: 0.041,inactive: -0.002,inactive: 0.081
NUDT7 (UniProt P0C024),inactive: 0.052,inactive: -0.058,inactive: 0.117,inactive: 0.111,inactive: -0.081,inactive: -0.034,inactive: 0.087,inactive: -0.205,inactive: -0.05,inactive: -0.008,inactive: -0.043,inactive: 0.099,inactive: 0.188,inactive: -0.057,inactive: 0.194,inactive: 0.007,inactive: 0.012,–,inactive: -0.058,–
NSRP1 (UniProt Q9H0G5),inactive: -0.024,inactive: -0.007,inactive: 0.007,inactive: 0.078,inactive: 0.01,inactive: -0.023,inactive: 0.096,inactive: -0.042,inactive: 0.059,inactive: 0.038,inactive: 0,inactive: -0.007,inactive: 0.038,inactive: 0.003,inactive: 0.014,inactive: 0.022,inactive: -0.013,inactive: -0.021,inactive: -0.007,inactive: -0.033
NOM1 (UniProt Q5C9Z4),inactive: 0.033,inactive: -0.022,–,inactive: -0.052,inactive: -0.045,–,inactive: -0.126,inactive: 0.097,inactive: 0.115,inactive: -0.012,inactive: -0.023,–,–,inactive: -0.016,inactive: -0.029,inactive: -0.261,inactive: 0.224,inactive: 0.014,inactive: 0.045,inactive: 0.025
NSD1 (UniProt Q96L73),inactive: -0.022,inactive: 0.033,–,inactive: -0.066,inactive: -0.049,inactive: 0.019,inactive: -0.012,inactive: 0.005,inactive: -0.093,–,inactive: 0.004,inactive: -0.047,inactive: 0.022,inactive: 0.019,inactive: 0.025,inactive: -0.013,inactive: -0.014,inactive: 0.06,inactive: -0.003,inactive: 0
NUDT8 (UniProt Q8WV74),inactive: 0.084,inactive: -0.035,–,inactive: 0.05,inactive: 0.008,inactive: 0.011,inactive: -0.367,inactive: 0.054,inactive: -0.003,inactive: -0.157,inactive: 0.001,inactive: 0.053,inactive: -0.114,inactive: 0.025,inactive: 0.081,inactive: -0.059,inactive: -0.043,inactive: -0.096,inactive: 0.061,inactive: 0.28
NMD3 (UniProt Q96D46),inactive: 0.008,inactive: 0.018,inactive: 0.004,inactive: -0.006,inactive: -0.01,inactive: 0,inactive: -0.01,inactive: 0.001,inactive: -0.006,inactive: -0.016,inactive: -0.001,inactive: -0.011,inactive: 0.019,inactive: -0.033,inactive: 0.016,inactive: 0.007,inactive: -0.036,inactive: -0.018,inactive: 0.012,inactive: -0.074
NRIP3 (UniProt Q9NQ35),inactive: 0.191,–,–,inactive: 0.065,–,–,inactive: 0.002,inactive: 0.11,–,–,inactive: 0.078,–,–,inactive: -0.159,–,inactive: 0.166,inactive: 0.129,–,–,–
NOSTRIN (UniProt Q8IVI9),inactive: 0.091,inactive: 0.024,inactive: 0.085,inactive: -0.178,inactive: -0.029,inactive: -0.026,inactive: 0.025,inactive: -0.094,inactive: -0.001,inactive: -0.054,inactive: -0.009,active: -0.35,inactive: 0.027,inactive: 0.07,inactive: 0.061,inactive: -0.112,inactive: 0.11,inactive: -0.019,inactive: 0,inactive: 0.004
